# Some of the results follow.
# What was measured:
# Assay in all cases: glycan array binding signal (z-score within array); higher = stronger binding
# Conditions in all cases: glycan notation: IUPAC condensed, linker removed
# [1] = target: Fuc(a1-2)Gal
# How it was run: (§1)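 Arrays were curated from the Consortium for Functional Glycomics database, 3228 in total, and kept only where the protein sequence was available. Binding is expressed as a within-array Z-score. This score was averaged across arrays of the same protein sequence at different concentrations or buffers and across linkers, and negative values can be read as non-binding.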
# [2] = target: Fuc(a1-2)Gal(b1-3)GalNAc
# How it was run: as §1
# [3] = target: Fuc(a1-2)Gal(b1-3)GalNAc(a1-3)[Fuc(a1-2)]Gal(b1-4)Glc
# How it was run: as §1
# [4] = target: Fuc(a1-2)Gal(b1-3)GalNAc(a1-3)[Fuc(a1-2)]Gal(b1-4)GlcNAc
# How it was run: as §1
# [5] = target: Fuc(a1-2)Gal(b1-3)GalNAc(b1-3)Gal
# How it was run: as §1
# [6] = target: Fuc(a1-2)Gal(b1-3)GalNAc(b1-3)Gal(a1-4)Gal(b1-4)Glc
# How it was run: as §1
# [7] = target: Fuc(a1-2)Gal(b1-3)GalNAc(b1-4)[Neu5Ac(a2-3)]Gal(b1-4)Glc
# How it was run: as §1
# [8] = target: Fuc(a1-2)Gal(b1-3)GlcNAc
# How it was run: as §1
# [9] = target: Fuc(a1-2)Gal(b1-3)GlcNAc(b1-2)Man(a1-3)[Fuc(a1-2)Gal(b1-3)GlcNAc(b1-2)Man(a1-6)]Man(b1-4)GlcNAc(b1-4)GlcNAc
# How it was run: as §1
# [10] = target: Fuc(a1-2)Gal(b1-3)GlcNAc(b1-2)Man(a1-3)[Fuc(a1-2)Gal(b1-3)GlcNAc(b1-2)Man(a1-6)]Man(b1-4)GlcNAc(b1-4)[Fuc(a1-6)]GlcNAc
# How it was run: as §1
# [11] = target: Fuc(a1-2)Gal(b1-3)GlcNAc(b1-3)Gal(b1-4)Glc
# How it was run: as §1
# [12] = target: Fuc(a1-2)Gal(b1-3)GlcNAc(b1-3)GalNAc
# How it was run: as §1
# [13] = target: Fuc(a1-2)Gal(b1-3)GlcNAc(b1-3)[Fuc(a1-2)Gal(b1-3)GlcNAc(b1-6)]GalNAc
# How it was run: as §1
# [14] = target: Fuc(a1-2)Gal(b1-3)GlcNAc(b1-3)[Fuc(a1-3)[Gal(b1-4)]GlcNAc(b1-6)]Gal(b1-4)Glc
# How it was run: as §1
# [15] = target: Fuc(a1-2)Gal(b1-3)GlcNAc(b1-3)[Gal(b1-4)GlcNAc(b1-6)]Gal(b1-4)Glc
# How it was run: as §1
# [16] = target: Fuc(a1-2)Gal(b1-3)GlcNAc(b1-3)[Neu5Ac(a2-6)Gal(b1-4)GlcNAc(b1-6)]Gal(b1-4)Glc
# How it was run: as §1
# [17] = target: Fuc(a1-2)Gal(b1-3)GlcNAc6S
# How it was run: as §1
# [18] = target: Fuc(a1-2)Gal(b1-3)[Fuc(a1-4)]GlcNAc
# How it was run: as §1
# [19] = target: Fuc(a1-2)Gal(b1-3)[Fuc(a1-4)]GlcNAc(b1-2)Man(a1-3)[Fuc(a1-2)Gal(b1-3)[Fuc(a1-4)]GlcNAc(b1-2)Man(a1-6)]Man(b1-4)GlcNAc(b1-4)GlcNAc
# How it was run: as §1
# [20] = target: Fuc(a1-2)Gal(b1-3)[Fuc(a1-4)]GlcNAc(b1-2)Man(a1-6)[Fuc(a1-2)Gal(b1-3)[Fuc(a1-4)]GlcNAc(b1-2)Man(a1-3)]Man(b1-4)GlcNAc(b1-4)[Fuc(a1-6)]GlcNAc
# How it was run: as §1
# [21] = target: Fuc(a1-2)Gal(b1-3)[Fuc(a1-4)]GlcNAc(b1-3)[Fuc(a1-3)[Gal(b1-4)]GlcNAc(b1-6)]Gal(b1-4)Glc
# How it was run: as §1
# [22] = target: Fuc(a1-2)Gal(b1-3)[Fuc(a1-4)]GlcNAc(b1-3)[Gal(b1-4)GlcNAc(b1-6)]Gal(b1-4)Glc
# How it was run: as §1
# [23] = target: Fuc(a1-2)Gal(b1-4)Glc
# How it was run: as §1
# [24] = target: Fuc(a1-2)Gal(b1-4)Glc6S
# How it was run: as §1
# [25] = target: Fuc(a1-2)Gal(b1-4)GlcNAc
# How it was run: as §1
# [26] = target: Fuc(a1-2)Gal(b1-4)GlcNAc(b1-2)Man
# How it was run: as §1
# [27] = target: Fuc(a1-2)Gal(b1-4)GlcNAc(b1-2)Man(a1-3)[Fuc(a1-2)Gal(b1-4)GlcNAc(b1-2)Man(a1-6)]Man(b1-4)GlcNAc(b1-4)GlcNAc
# How it was run: as §1
# [28] = target: Fuc(a1-2)Gal(b1-4)GlcNAc(b1-2)Man(a1-3)[Fuc(a1-2)Gal(b1-4)GlcNAc(b1-2)Man(a1-6)]Man(b1-4)GlcNAc(b1-4)[Fuc(a1-6)]GlcNAc
# How it was run: as §1
# [29] = target: Fuc(a1-2)Gal(b1-4)GlcNAc(b1-2)[Fuc(a1-2)Gal(b1-4)GlcNAc(b1-4)]Man(a1-3)[Fuc(a1-2)Gal(b1-4)GlcNAc(b1-2)Man(a1-6)]Man(b1-4)GlcNAc(b1-4)GlcNAc
# How it was run: as §1
# [30] = target: Fuc(a1-2)Gal(b1-4)GlcNAc(b1-3)Gal(b1-4)GlcNAc
# How it was run: as §1
binder,measurement,setting,value
CALR truncated at D342 (Homo sapiens) (protein) EPAVYFKEQFLDGDGWTSRWIESKHKSDFGKFVLSSGKFYGDEEKDKGLQTSQDARFYALSASFEPFSNKGQTLVVQFTVKHEQNIDCGGGYVKLFPNSLDQTDMHGDSEYNIMFGPDICGPGTKKVHVIFNYKGKNVLINKDIRCKDDEFTHLYTLIVRPDNTYEVKIDNSQVESGSLEDDWDFLPPKKIKDPDASKPEDWDERAKIDDPTDSKPEDWDKPEHIPDPDAKKPEDWDEEMDGEWEPPVIQNPEYKGEWKPRQIDNPDYKGTWIHPEIDNPEYSPDPSIYAYDNFGVLGLDLWQVKSGTIFDNFLITNDEAYAEEFGNETWGVTKAAEKQMKD,glycan array binding signal (z-score),[1],-0.171
same,glycan array binding signal (z-score),[2],0.683
same,glycan array binding signal (z-score),[3],2.69
same,glycan array binding signal (z-score),[4],2.31
same,glycan array binding signal (z-score),[5],-0.668
same,glycan array binding signal (z-score),[6],-0.373
same,glycan array binding signal (z-score),[7],-0.359
same,glycan array binding signal (z-score),[8],-0.475
same,glycan array binding signal (z-score),[9],-0.776
same,glycan array binding signal (z-score),[10],-0.24
same,glycan array binding signal (z-score),[11],-0.803
same,glycan array binding signal (z-score),[12],-1.55
same,glycan array binding signal (z-score),[13],-0.633
same,glycan array binding signal (z-score),[14],-1.53
same,glycan array binding signal (z-score),[15],-0.254
same,glycan array binding signal (z-score),[16],0.712
same,glycan array binding signal (z-score),[17],1.55
same,glycan array binding signal (z-score),[18],0.785
same,glycan array binding signal (z-score),[19],3.18
same,glycan array binding signal (z-score),[20],0.387
same,glycan array binding signal (z-score),[21],1.09
same,glycan array binding signal (z-score),[22],0.169
same,glycan array binding signal (z-score),[23],-0.883
same,glycan array binding signal (z-score),[24],0.748
same,glycan array binding signal (z-score),[25],0.301
same,glycan array binding signal (z-score),[26],-1.98
same,glycan array binding signal (z-score),[27],-0.268
same,glycan array binding signal (z-score),[28],0.591
same,glycan array binding signal (z-score),[29],2.76
same,glycan array binding signal (z-score),[30],-0.209

# A different layout for some results above:
binder | measurement | setting | value
CALR truncated at D342 (Homo sapiens) (protein) EPAVYFKEQFLDGDGWTSRWIESKHKSDFGKFVLSSGKFYGDEEKDKGLQTSQDARFYALSASFEPFSNKGQTLVVQFTVKHEQNIDCGGGYVKLFPNSLDQTDMHGDSEYNIMFGPDICGPGTKKVHVIFNYKGKNVLINKDIRCKDDEFTHLYTLIVRPDNTYEVKIDNSQVESGSLEDDWDFLPPKKIKDPDASKPEDWDERAKIDDPTDSKPEDWDKPEHIPDPDAKKPEDWDEEMDGEWEPPVIQNPEYKGEWKPRQIDNPDYKGTWIHPEIDNPEYSPDPSIYAYDNFGVLGLDLWQVKSGTIFDNFLITNDEAYAEEFGNETWGVTKAAEKQMKD | glycan array binding signal (z-score) | [20] | 0.387
same | glycan array binding signal (z-score) | [29] | 2.76
